Assay results published in article PMC11271578.
Results are given in words; binding and its absence hold for the method and conditions named. Binding seen in cells or lysates may run through a third protein. Some entries that bind do so weakly or less than the wild type.

Protein sequences, listed by entry. Tags and fused reporters are not part of them.
UniProt Q8NFA0: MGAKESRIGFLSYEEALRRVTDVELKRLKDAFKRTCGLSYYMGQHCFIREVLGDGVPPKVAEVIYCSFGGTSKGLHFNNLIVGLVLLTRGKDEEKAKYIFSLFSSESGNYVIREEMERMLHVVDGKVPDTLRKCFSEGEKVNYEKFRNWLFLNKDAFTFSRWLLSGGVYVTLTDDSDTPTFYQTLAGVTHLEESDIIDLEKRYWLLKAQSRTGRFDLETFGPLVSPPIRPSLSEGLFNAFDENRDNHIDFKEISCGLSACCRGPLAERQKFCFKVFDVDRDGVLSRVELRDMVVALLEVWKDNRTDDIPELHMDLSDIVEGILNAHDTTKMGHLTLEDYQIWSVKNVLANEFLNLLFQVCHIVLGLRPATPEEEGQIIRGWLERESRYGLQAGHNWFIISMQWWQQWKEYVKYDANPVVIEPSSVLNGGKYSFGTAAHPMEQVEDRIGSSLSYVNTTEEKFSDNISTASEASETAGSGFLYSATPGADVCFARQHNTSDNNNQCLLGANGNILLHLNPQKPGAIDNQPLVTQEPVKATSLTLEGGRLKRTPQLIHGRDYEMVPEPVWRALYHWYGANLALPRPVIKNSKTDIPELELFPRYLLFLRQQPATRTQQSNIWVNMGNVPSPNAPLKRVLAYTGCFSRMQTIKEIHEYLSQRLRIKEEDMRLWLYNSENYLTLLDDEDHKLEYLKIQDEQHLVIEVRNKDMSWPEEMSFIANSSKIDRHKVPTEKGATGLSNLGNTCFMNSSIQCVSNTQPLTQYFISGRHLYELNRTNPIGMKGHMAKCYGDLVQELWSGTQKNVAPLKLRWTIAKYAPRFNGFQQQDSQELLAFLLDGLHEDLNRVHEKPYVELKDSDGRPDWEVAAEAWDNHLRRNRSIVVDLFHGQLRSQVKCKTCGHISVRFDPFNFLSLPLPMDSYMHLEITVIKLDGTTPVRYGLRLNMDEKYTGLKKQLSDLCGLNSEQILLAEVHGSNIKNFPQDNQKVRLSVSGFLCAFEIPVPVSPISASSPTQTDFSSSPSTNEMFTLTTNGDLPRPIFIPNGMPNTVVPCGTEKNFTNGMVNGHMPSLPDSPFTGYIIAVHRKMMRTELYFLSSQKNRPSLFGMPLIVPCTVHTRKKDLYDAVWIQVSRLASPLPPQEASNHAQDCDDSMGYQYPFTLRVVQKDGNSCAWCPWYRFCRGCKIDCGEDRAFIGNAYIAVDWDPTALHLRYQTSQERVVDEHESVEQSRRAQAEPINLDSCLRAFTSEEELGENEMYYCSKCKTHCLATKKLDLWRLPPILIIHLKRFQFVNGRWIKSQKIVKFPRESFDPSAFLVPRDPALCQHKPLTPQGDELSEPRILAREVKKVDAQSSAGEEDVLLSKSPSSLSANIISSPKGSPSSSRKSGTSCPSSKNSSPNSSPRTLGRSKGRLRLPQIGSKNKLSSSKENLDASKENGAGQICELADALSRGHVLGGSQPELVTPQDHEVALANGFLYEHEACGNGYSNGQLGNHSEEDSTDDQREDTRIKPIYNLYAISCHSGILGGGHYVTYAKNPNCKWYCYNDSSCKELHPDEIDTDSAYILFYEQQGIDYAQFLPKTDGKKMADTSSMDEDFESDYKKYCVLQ
UniProt O95817: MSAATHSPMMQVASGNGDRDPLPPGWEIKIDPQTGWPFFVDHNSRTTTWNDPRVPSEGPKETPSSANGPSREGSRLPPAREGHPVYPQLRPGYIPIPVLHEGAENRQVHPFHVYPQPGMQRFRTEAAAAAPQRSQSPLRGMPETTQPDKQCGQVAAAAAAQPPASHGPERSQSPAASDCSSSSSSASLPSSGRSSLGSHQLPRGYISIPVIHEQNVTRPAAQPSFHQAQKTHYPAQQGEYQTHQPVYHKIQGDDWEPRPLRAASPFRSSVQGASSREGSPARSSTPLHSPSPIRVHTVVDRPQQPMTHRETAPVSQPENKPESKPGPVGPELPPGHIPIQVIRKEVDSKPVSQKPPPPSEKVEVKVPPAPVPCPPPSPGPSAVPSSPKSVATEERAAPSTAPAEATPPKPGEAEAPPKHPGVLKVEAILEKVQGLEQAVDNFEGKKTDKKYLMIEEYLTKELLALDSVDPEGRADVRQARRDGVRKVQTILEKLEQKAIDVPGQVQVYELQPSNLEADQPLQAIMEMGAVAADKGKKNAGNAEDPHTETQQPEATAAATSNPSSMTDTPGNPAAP

Biological target: Myc-tagged USP32 (ubiquitin-specific peptidase 32) (human) (UniProt Q8NFA0)
Test: co-IP; HEK293T cells cotransfected with Myc-USP32 and/or Flag-BAG3; weak RIPA lysate; immunoprecipitated with anti-Myc or anti-Flag antibody and protein A/G agarose, 4 °C overnight; immunoblot with anti-Flag or anti-Myc

binding: binds
Substance: Flag-tagged BAG3 (Bcl2-associated athanogene 3) (from UniProt O95817 1-575)
